Experimental data taken from publication PMC12040169 (PLOS Biology, 2025).
This is one part of the list.

System: T1, CTL2-GFP (C. trachomatis L2/434/Bu, GFP-expressing)
T1 construct: L2/434/Bu, GFP-expressing
Design: species or system HeLa; Intracellular C. trachomatis growth in HeLa cells, bulk GFP fluorescence relative to DMSO
Conditions: bulk GFP, single well; 28.5 h, 10 µM; inhibitor

| SMILES | % of control remaining [%] |
| --- | --- |
| CC(=O)NC1CCN(c2nc(N(C)C)nc3c2CCN(C(C)=O)C3)CC1 [CBK307079] | 111.164 |
| Cc1ccccc1-n1ncc2c(=O)n(Cc3ccccc3)cnc21 [CBK287690] | 86.0861 |
| CCOC(=O)c1[nH]c2ccccc2c1NC(=O)c1ccc(Cl)c(C)c1 [CBK160146] | 131.484 |
| O=C(NCC(c1ccccc1)N1CCOCC1)c1cnc(-c2ccc(F)cc2)c(-c2ccco2)c1 (stereo not drawn) [CBK037531] | 188.327 |
| CCOc1ccccc1C(=O)Nc1cnc(-c2cccc(OC(F)(F)F)c2)c(-c2cccnc2)n1 [CBK036952] | 74.5153 |
| COc1ccc(N2CCN(CC(=O)Nc3ccc(Cl)cc3C(=O)c3ccccc3)CC2)cc1 [CBK265743] | 106.245 |
| Cc1cc(C)c(OCCOCCN2CCNCC2)c(Br)c1 [CBK266079G] | 151.619 |
| Cc1cc(N2CCN(C(=O)c3c[nH]c(=O)[nH]3)CC2)nc(C(C)C)n1 [CBK296681] | 107.049 |
| COc1ccc(NC2=CC(=O)CC(c3ccc(C)cc3)C2)c(OC)c1 (stereo not drawn) [CBK264845] | 90.2761 |
| Cc1cc2nc(SCCNC(=O)c3ccc(Cl)cc3)nc(C)c2cc1C [CBK266223] | 140.452 |
| COc1ccc(-c2ccc(OC)cc2C(=O)Nc2ccc(Cn3cncn3)cc2)cc1 [CBK285588] | 111.523 |
| O=C(CNC(=O)c1ccccc1)N/N=C/c1ccc(Br)cc1 [CBK260957] | 104.31 |
| CC1(C)NC(=O)N(CCCC(=O)NCc2coc(-c3cccs3)n2)C1=O [CBK237157] | 120.382 |
| CC1CC(N(C(=O)c2cccc(Br)c2)c2ccccc2)c2ccccc2N1 (stereo not drawn) [CBK262966] | 117.454 |
| O=C1c2ccc(OCCOc3ccc4c(c3)C(=O)N(c3ccc(O)cc3)C4=O)cc2C(=O)N1c1ccc(O)cc1 [CBK262668] | 116.116 |
| CC(C)Oc1ccc(C(F)(F)F)cc1N [CBK028895C] | 114.402 |
| CC[C@H](Cn1c(=O)oc2ccccc21)NC(=O)Cc1ccsc1 [CBK284543] | 125.485 |
| Cc1ccc(-c2n[nH]c(=S)n2CCC(=O)N2CCC(c3c[nH]c4ccccc34)CC2)cc1 [CBK296739] | 122.578 |
| O=C1/C(=C/c2c(NCCc3ccccc3)nc3ccccn3c2=O)SC(=S)N1Cc1ccco1 [CBK264674] | 111.941 |
| COc1ccc([N+](=O)[O-])cc1NC(=O)CSCc1ccc(Br)cc1 [CBK268272] | 149.35 |
| O=C(c1ccco1)N1CCN(C(=O)c2ccco2)CC1 [CBK068272] | 116.469 |
| N[C@@H]1CCCN(C(=O)C2CC2)[C@H]1c1ccccc1F [CBK281563] | 102.076 |
| CCCC(=O)c1ccc(S(=O)(=O)N2CCCN(Cc3c[nH]nc3-c3ccccc3)CC2)cc1 [CBK062916] | 104.96 |
| COc1ccc(CC(=O)N2CCCC(c3cc4ncccc4[nH]3)C2)cc1 (stereo not drawn) [CBK283418] | 113.502 |
| CCNc1cc(N2CCN(C)CC2)ccc1NS(=O)(=O)c1ccc(F)cc1F [CBK001496C] | 110.636 |
| COc1ccc(C(O)CNC(C)C)c2c(C)c(C)oc12 (stereo not drawn) [CBK011885C] | 135.523 |

| SMILES | % of control remaining [%] |
| --- | --- |
| CC(SCC(=O)Nc1ccc(F)cc1)c1nc2ccccc2c(=O)[nH]1 (stereo not drawn) [CBK269200] | 85.6196 |
| CCC1CCCCN1C(=O)c1c(Cl)cccc1Cl (stereo not drawn) [CBK081303] | 119.619 |
| COCCCNCC#CCOc1ccccc1OC [CBK267419G] | 116.902 |
| O=C(NCCN1CCC(O)(c2ccc(F)cc2)CC1)c1cccs1 [CBK283163] | 84.193 |
| Nc1ccc2ccc(Cl)nc2n1 [CBK039198] | 88.3122 |
| O=C(O)C1C2C=CC(O2)C1C(=O)NCC1CCCO1 (stereo not drawn) [CBK286917] | 103.281 |
| COc1cc(C#N)ccc1Oc1ccc([N+](=O)[O-])cc1C(F)(F)F [CBK002544] | 97.0671 |
| Cc1ccc([N+](=O)[O-])cc1NC(=O)CN(Cc1ccc(Cl)cc1)S(C)(=O)=O [CBK267981] | 127.929 |
| COC(=O)c1ccc(Cl)cc1N(Cc1c(F)cccc1Cl)S(C)(=O)=O [CBK021351] | 102.418 |
| CCOCCNS(=O)(=O)c1ccc(C(C)(C)CC)cc1 [CBK044655] | 126.033 |
| O=C(c1cccnc1)N1CCN(Cc2cccc([N+](=O)[O-])c2)CC1 [CBK263020] | 86.4049 |
| CC(C)Cn1c(=O)[nH]c2ncc(-c3cncnc3)nc21 [CBK064177] | 134.102 |
| COc1ccc(CC(=O)NCc2nc(-c3ccc(OC)cc3)no2)cc1 [CBK270043] | 120.206 |
| CCC(C(=O)Nc1cc(OC)c(OC)cc1C(=O)O)c1ccccc1 (stereo not drawn) [CBK266794] | 166.113 |
| COc1ccccc1Oc1nnnn1-c1ccc(C(N)=O)cc1 [CBK267988] | 125.815 |
| Cn1nccc1C(=O)Nc1nc(-c2ccccc2)cs1 [CBK287833] | 103.639 |
| CC(C)c1ccc(S(=O)(=O)n2c(=O)n(CCc3c[nH]c4ccccc34)c3ccccc32)cc1 [CBK106518] | 113.237 |
| Cn1c(N2CC[C@H](O)C2)nc2cc(C(=O)NC[C@@H]3CCCO3)ccc21 [CBK307433] | 90.5531 |
| Cc1ccc(S(=O)(=O)NC(=O)N(Cc2ccccc2)Cc2ccco2)cc1 [CBK269524] | 124.323 |
| Cc1cccc(-c2ccc(CC3(C(=O)NC(C)C)CCN(C(=O)C(C)(C)C)CC3)cc2)c1 [CBK285758] | 137.172 |
| CN(CC(=O)NC1CCCCC1)S(=O)(=O)c1ccc(F)cc1 [CBK091832] | 108.326 |
| CC(C)Cc1csc(C2CN3CCCC3CO2)n1 (stereo not drawn) [CBK304807] | 102.686 |
| O=C(OCn1nnc2ccccc2c1=O)c1cccc([N+](=O)[O-])c1 [CBK264887] | 91.9315 |
| O=C(Nc1cccc2cc[nH]c12)c1cc(F)c(Cl)cc1F [CBK160080] | 123.001 |
| CC(=O)c1ccc(NC(=O)c2cccc(Cl)c2)cc1 [CBK033939] | 130.094 |
| O=C(Nn1cnnc1)c1ccc(C(=O)Nn2cnnc2)cc1 [CBK261111] | 108.102 |

Looked up above:
Entry for `CCC(C(=O)Nc1cc(OC)c(OC)cc1C(=O)O)c1ccccc1` (stereo not drawn) [CBK266794] under % of control remaining [%]: 166.113
Entry for `O=C(O)C1C2C=CC(O2)C1C(=O)NCC1CCCO1` (stereo not drawn) [CBK286917] under % of control remaining [%]: 103.281
Entry for `Cc1cc(C)c(OCCOCCN2CCNCC2)c(Br)c1` [CBK266079G] under % of control remaining [%]: 151.619

The results go on.

| SMILES | % of control remaining [%] |
| --- | --- |
| O=C(Cn1c(C2CCCNC2)cc2cccnc21)NC1CCCC1 (stereo not drawn) [CBK285059] | 101.291 |
| CC(=O)Nc1cccc(-n2cnnc2SCC2CCCCC2)c1 [CBK305054] | 85.9325 |
| COc1ccccc1N1C(=O)[C@H]2N=C(C(=O)c3cnccn3)N[C@H]2C1=O [CBK021406] | 118.443 |
| CC1=C(C(=O)Nc2ccccc2)C(c2cccs2)C(C#N)=C(SCC(=O)c2ccc(Br)cc2)N1 (stereo not drawn) [CBK261384] | 96.5691 |
| C1=C(CNC(Cc2cccs2)c2nccs2)COCC1 (stereo not drawn) [CBK284682] | 72.0243 |
| CCOc1cccc(-c2cncc(NC(C)CCCC(C)(C)O)n2)c1 (stereo not drawn) [CBK066020] | 187.219 |
| Cc1cccc(=O)n1CCCNc1cc(C2CCOC2)nc(N)n1 (stereo not drawn) [CBK307030] | 150.026 |
| Cc1ccnc(NCC2CCN(CC(=O)NC3(C#N)CCCC3)C2)c1 (stereo not drawn) [CBK306128] | 127.24 |
| Cn1nc(C2CCCC2)cc1[C@H]1CN2CC[C@H]1C[C@@H]2CNS(=O)(=O)c1ccccc1 [CBK288741] | 120.148 |
| Cc1nc(CCNC(=O)N2CCC(Oc3cccnc3)CC2)sc1Cl [CBK306636] | 130.756 |
| O=C(NCc1ccccc1)c1ccc(N2C(=O)CSC23C(=O)Nc2ccccc23)cc1 (stereo not drawn) [CBK093476] | 95.9166 |
| O=C1CC2(CCN(Cc3ccc(C(F)(F)F)cc3)CC2)CN1 [CBK283359] | 121.762 |
| Cc1c(F)cccc1CN(CC(C)(C)CN)C(=O)Nc1ccc2c(c1)OCO2 [CBK002486C] | 124.91 |
| O=C(CC1CCN(Cc2ccccn2)CC1)Nc1ccc(OC2CCCC2)cc1 [CBK285960] | 71.6802 |
| CCn1c(=N)c(C(=O)NCCOC)cc2c(=O)n3ccccc3nc21 [CBK287605] | 116.494 |
| C=CCn1c(SC(C)C(=O)O)nnc1-c1ccc(OC)cc1 (stereo not drawn) [CBK268958] | 153.778 |
| O=C(Nc1ccc([C@@H](O)[C@H]2COCC(=O)N2Cc2ccccc2F)cc1)c1cnccn1 [CBK289060] | 158.514 |
| CC1CN(Cc2nc3c(c(=O)[nH]c(=O)n3C)n2Cc2cccc(Cl)c2)CC(C)O1 (stereo not drawn) [CBK269450] | 66.8111 |
| Cc1ccc(OCc2ccccc2)c(Br)c1 [CBK002833] | 122.638 |
| c1csc(CN2CCNCC2)c1 [CBK027324] | 110.629 |
| CS(=O)(=O)N1CCc2cc(C(=O)Cn3nc(C(=O)O)c4ccccc4c3=O)ccc21 [CBK297000] | 169.332 |
| N#CC(c1ccc(Br)cc1)n1ccnc1 (stereo not drawn) [CBK009985] | 126.988 |
| COC(=O)c1ccc(NC(=O)CCN2C(=O)c3cccc([N+](=O)[O-])c3C2=O)cc1 [CBK263137] | 90.7614 |
| CC(=O)C12CCCCC1CC1C3CC(C)C4(O)CC(O)CCC4(C)C3CCC12C (stereo not drawn) [CBK261479] | 103.999 |
| O=S(=O)(c1sccc1F)N1CCOCC1c1cccc(F)c1 (stereo not drawn) [CBK304730] | 132.957 |
| Cc1cc(C[C@@H]2COC[C@H]2NCc2ccc(C(F)(F)F)cc2)on1 [CBK285463] | 96.3008 |

Random excerpt: three compounds from above, in no set order.

| SMILES | % of control remaining [%] |
| --- | --- |
| CCOc1cccc(-c2cncc(NC(C)CCCC(C)(C)O)n2)c1 (stereo not drawn) [CBK066020] | 187.219 |
| CS(=O)(=O)N1CCc2cc(C(=O)Cn3nc(C(=O)O)c4ccccc4c3=O)ccc21 [CBK297000] | 169.332 |
| N#CC(c1ccc(Br)cc1)n1ccnc1 (stereo not drawn) [CBK009985] | 126.988 |
